PMC7362662
These are yes or no findings as the source states them, for the method shown. A result given as binding can be weak or reduced; the word gives no strength.

Molecular target: ZjbZIP28 (Ziziphus jujuba (Chinese jujube))
Assay: two-hybrid; yeast two-hybrid (Y2H) by the method of ref. 56; bait and prey not told

| Substance | binding |
| --- | --- |
| ZjbZIP27 (from UniProt A0A6P4AVP0) | binds |
| ZjbZIP29 (from UniProt A0A6P3YWS0) | binds |
